{"source": "patent US10577387B1", "about": "“Platinum (II) complexes containing N-heterocyclic carbene ligand and pincer ligands, synthesis, and their applications in cancer treatment” (priority 2018, dated 2020)", "type_in_all_cases": "cell-based, human", "conditions_in_all_cases": "1b at sub-cytotoxic concentration, LY294002 or U0126 10 or 20 μM", "key": {"MDA-MB-231": {"system": "MDA-MB-231", "test": "MTT assay, in vitro cytotoxicity / cell growth"}, "MDA-MB-231 cells [1]": {"system": "MDA-MB-231 cells", "test": "Transwell invasion assay"}, "MDA-MB-231 cells [2]": {"system": "MDA-MB-231 cells", "test": "Wound closure (scratch) migration assay"}}, "note": "At least one structure is not confirmed: it was looked up by name or label, or the drawing left a doubt."}
{"smiles": "O=c1cc(N2CCOCC2)oc2c(-c3ccccc3)cccc12", "note": "[LY294002, reference compound]", "values": [{"measurement": "cell growth inhibition, agent alone", "setting": "MDA-MB-231", "value": "insignificant cell growth inhibitory effects"}, {"measurement": "inhibition of invasion, agent alone", "setting": "MDA-MB-231 cells [1]", "value": "notable inhibition"}, {"measurement": "inhibition of migration, agent alone", "setting": "MDA-MB-231 cells [2]", "value": "notable inhibition"}]}
